Data: patent US20030186254A1
Results are given in words; binding and its absence hold for the method and conditions named. Some results given as binding are weak or reduced against the parent protein; the word gives no strength.

Target: Tip60, clone of a human brain library in vector pACT2 (yeast two-hybrid prey) (human)
Test: yeast two-hybrid screen of a human brain library

B1: amino-terminal half of PAK4 (amino acids 1 to 313, lacking the kinase domain) cloned into the vector pAS2-1 (yeast two-hybrid bait) (protein, not shown: large carriers)
chain: MFGKRKKRVEISAPSNFEHRVHTGFDQHEQKFTGLPRQWQSLIEESARRPKPLVDPACITSIQPGAPKTIVRGSKGAKDGALTLLLDEFENMSVTRSNSLRRDSPPPPARARQENGMPEEPATTARGGPGKAGSRGRFAGHSEAGGGSGDRRRAGPEKRPKSSREGSGGPQESSRDKRPLSGPDVGTPQPAGLASGAKLAAGRPFNTYPRADTDHPSRGAQGEPHDVAPNGPSAGGLAIPQSSSSSSRPPTRARGAPSPGVLGPHASEPQLAPPACTPAAPAVPGPPGPRSPQREPQRVSHEQFRAALQLVVD
B1 was tested, and the binding was “binds”.
